The text below walks through data of PMC6588349, “Conformational dynamics between transmembrane domains and allosteric modulation of a metabotropic glutamate receptor” (eLife, 2019).

Sequences of proteins named here, by UniProt entry; tags and fusion partners are left off. A change or cut given only in a name is not applied to a line headed by its entry. A line that says so, or that is headed by a name, gives the form on record, which may keep a tag or linker.
SNAP-mGluR2-TMD-N735D (P31421, form named): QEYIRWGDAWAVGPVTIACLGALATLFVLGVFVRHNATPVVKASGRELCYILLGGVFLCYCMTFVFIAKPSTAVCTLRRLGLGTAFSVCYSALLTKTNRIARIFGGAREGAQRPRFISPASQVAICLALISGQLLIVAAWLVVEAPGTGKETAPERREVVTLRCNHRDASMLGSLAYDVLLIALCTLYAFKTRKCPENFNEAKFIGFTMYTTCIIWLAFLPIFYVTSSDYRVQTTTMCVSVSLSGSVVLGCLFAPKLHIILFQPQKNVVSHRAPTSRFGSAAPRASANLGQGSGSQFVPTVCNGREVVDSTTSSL

These are yes or no findings as the source states them, for the method shown. Binding seen in cells or lysates may run through a third protein. Some entries that bind do so weakly or less than the wild type.

The experiment has as its target SNAP-mGluR2-TMD-N735D (rat) (UniProt P31421). Nature of the experiment: FRET or BRET; living HEK 293T cells, N-terminal SNAP (or SNAP and CLIP) tags labelled at the surface with donor and acceptor fluorophores, donor excited at 561 nm, ensemble FRET of cell clusters, acceptor bleaching/donor recovery and drug-induced FRET changes, room temperature. In general terms: In BRET a luciferase serves as donor, and the signal depends on an acceptor being close.

Regarding “SNAP-mGluR2-TMD-N735D (from UniProt P31421 558-872) (domain or fragment)”, the binding result is listed as “binds”.
